{"source": "PubChem BioAssay AID1347075", "about": "(National Center for Advancing Translational Sciences (NCATS), 2019)", "note": "The whole screen tested about 400,000 compounds, of which about 5,500 (1.4%) were called active. Inconclusive results, whose numbers are uncertain, are shown with a selection of clear calls. Calls follow the shape of the dose curve; as a rule, active = well fitted cell-killing curve with a large enough effect; inconclusive = small, poorly fitted or top-dose-only effect, or effect the other way; inactive = flat fitted curve, though single readings scatter. Potencies beside an inconclusive call are fits to weak or partial responses and may not hold up. % is scaled to controls: 0 for no effect and ±100 for the full control effect; potency is read from the fitted curve at half-maximal effect."}
{"test": "qHTS assay for MDR1-selective chemotherapeutics: Primary screen using the parental adenocarcinoma cell KB-3-1; also: nearly all actives have a fitted effect of over 60% in size", "conditions": "KB-3-1 viability, CellTiter-Glo ATP luminescence, 72 h; activity change, negative = cytotoxic: at 46.1 µM (top of the series)", "how_it_was_run": "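Multi-concentration cytotoxicity screen in KB-3-1 cells grown in DMEM lacking phenol red with 10% FBS. After 72 h at 37 °C with compound, ATP-dependent luminescence was recorded.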"}
{"smiles": "Cc1ccc(C(C[N+](=O)[O-])c2c(-c3ccccc3O)[nH][nH]c2=O)cc1", "note": "(stereo not given)", "Potency": "inconclusive: 29.1 µM [cytotoxic, single point]"}
{"smiles": "COc1ccc(C(NC(=O)C(C)C)c2c(O)ccc3ccccc23)cc1", "note": "(stereo not given)", "Potency": "inconclusive: 29.1 µM [cytotoxic, single point]"}
{"smiles": "N#Cc1cc(C(=O)c2ccccc2O)cn(-c2ccc(Cl)cc2)c1=O", "Potency": "inconclusive: 29.1 µM [cytotoxic, single point]"}
{"smiles": "CC(C)Oc1ncnc2c1[nH]c1ccccc12", "Potency": "inconclusive: 11.6 µM [cytotoxic, partial curve]"}
{"smiles": "COc1ccc(OCC2NCCc3cc(OC)c(OC)cc32)cc1", "note": "(stereo not given)", "activity change, negative = cytotoxic": "inactive: 4.02%"}
{"smiles": "CCn1c(=O)c([N+](=O)[O-])c(NCc2ccco2)c2ccccc21", "Potency": "inconclusive: 0.116 µM [cytotoxic, full curve]"}
{"smiles": "Cc1ccc2nc3c(cc(C(N)=S)c(=N)n3CCCOC(C)C)c(=O)n2c1", "Potency": "inconclusive: 29.1 µM [cytotoxic, single point]"}
{"smiles": "CC12CCC(C(=O)N/N=C/c3ccc(O)cc3)(OC1=O)C2(C)C", "note": "(stereo not given)", "activity change, negative = cytotoxic": "inactive: 27.7%"}
{"smiles": "COC(=O)c1ccccc1NS(=O)(=O)c1ccc2[nH]c(=O)[nH]c2c1", "Potency": "inconclusive: 23.1 µM [cytotoxic, single point]"}
{"smiles": "CCCCCCn1c(=O)n2n(c1=O)[C@@H]1CN(S(=O)(=O)c3ccc(C)cc3)C[C@]1(O)[C@@H](OC(=O)NCC1CCCCC1)C2", "Potency": "inconclusive: 18.4 µM [cytotoxic, single point]"}
{"smiles": "Cc1cccc2cc(/C=C/C(=O)c3ccco3)c(Cl)nc12", "Potency": "inconclusive: 25.9 µM [cytotoxic, single point]"}
{"smiles": "Cc1cccn2c(=O)c3cc(C#N)c(=O)n(CCCN4CCOCC4)c3nc12", "Potency": "inconclusive: 29.1 µM [rising, single point]"}
{"smiles": "CC(Sc1nnc2n1CCCCC2)C(=O)Nc1ccc(S(N)(=O)=O)cc1", "note": "(stereo not given)", "activity change, negative = cytotoxic": "inactive: -6.96%"}
{"smiles": "CC(C)c1ccc(NC(=O)C2Cc3c(-c4cccc(F)c4)ccnc3O2)cc1", "note": "(stereo not given)", "Potency": "inconclusive: 29.1 µM [cytotoxic, single point]"}
{"smiles": "CCc1c(C)sc2c1CCN(Cc1ccc(F)cc1)C2c1ccccc1", "note": "(stereo not given)", "Potency": "inconclusive: 18.4 µM [cytotoxic, single point]"}
{"smiles": "COC(=O)CC1C(=O)NCCN1C(=O)CSc1nc2ccccc2c(=O)n1CC(C)C", "note": "(stereo not given)", "Potency": "inconclusive: 2.59 µM [rising, full curve, poor fit]"}
{"smiles": "Cc1c(C(=O)Nc2cccc([N+](=O)[O-])c2)csc1-c1ccccc1", "activity change, negative = cytotoxic": "inactive: -29.3%"}
{"smiles": "O=P(OC1CCCCC1)(OC1CCCCC1)C(O)c1cccnc1", "note": "(stereo not given)", "Potency": "inconclusive: 23.1 µM [rising, single point]"}
{"smiles": "COc1cc(SC)ccc1C(=O)Nc1ccc(Cl)cn1", "Potency": "inconclusive: 25.9 µM [cytotoxic, single point]"}
{"smiles": "CCCNC(=O)c1cc(C2CCCCN2C(=O)CCCc2ccccc2)on1", "note": "(stereo not given)", "activity change, negative = cytotoxic": "inactive: 0%"}
{"smiles": "Cc1[nH]n(-c2ccccc2)c(=O)c1/C=N/NC(=O)C(C)C", "activity change, negative = cytotoxic": "inactive: 0%"}
{"smiles": "O=[N+]([O-])c1cc(S(=O)(=O)Nc2ccc(Cl)cc2)ccc1N/N=C/c1ccncc1", "activity change, negative = cytotoxic": "inactive: -0.115%"}
{"smiles": "Cc1ccc(C)c(SCC(=O)N(C)CC(=O)Nc2ccc(N3CCOCC3)cc2)c1", "activity change, negative = cytotoxic": "inactive: 2.8%"}
{"smiles": "Cc1c(C(=O)c2ccc(Cl)cc2[N+](=O)[O-])c2ccccn2c1CCC#N", "Potency": "inconclusive: 23.1 µM [cytotoxic, partial curve, poor fit]"}
{"smiles": "CCCCN(C(=O)CCCc1nc2ccccc2c(=O)[nH]1)c1c(N)n(CCCC)c(=O)[nH]c1=O", "Potency": "inconclusive: 20.6 µM [rising, single point]"}
{"smiles": "COc1ccc(OC)c(NC(=O)CSc2nnc(C3CCCCC3)n2-c2ccccc2)c1", "Potency": "inconclusive: 20.6 µM [cytotoxic, single point]"}
{"smiles": "COc1ccc(/C=C2\\SC(=S)N(CCCC(=O)N3CCN(C)CC3)C2=O)cc1", "activity change, negative = cytotoxic": "inactive: -4.67%"}
{"smiles": "Cc1ccc(CN2c3ccccc3S(=O)(=O)c3ccccc32)cc1", "activity change, negative = cytotoxic": "inactive: -29.3%"}
{"smiles": "CCOC(=O)C1=C(C)NC(=S)NC1c1ccc(-c2ccc(Cl)cc2)o1", "note": "(stereo not given)", "Potency": "inconclusive: 20.6 µM [cytotoxic, single point]"}
{"smiles": "CCCCc1cc(=O)oc2cc(OC(C)C(=O)NCc3ccccn3)c(Cl)cc12", "note": "(stereo not given)", "Potency": "inconclusive: 18.4 µM [rising, partial curve, poor fit]"}
{"smiles": "CCN(CC)CCNC(=O)c1ccc(NC(=O)c2cccc(S(=O)(=O)N3CCc4ccccc43)c2)cc1", "Potency": "inconclusive: 25.9 µM [cytotoxic, single point]"}
{"smiles": "CCN1CCC(N(Cc2cccc(OC)c2)C(=O)Nc2ccc(C)cc2Cl)CC1", "activity change, negative = cytotoxic": "inactive: -4.93%"}
{"smiles": "CCC(C(=O)Nc1cccc(C#N)c1)n1c(=O)c(-c2ccccc2NC(C)=O)nc2ccccc21", "note": "(stereo not given)", "Potency": "inconclusive: 14.6 µM [cytotoxic, partial curve]"}
{"smiles": "O=C1/C(=C/c2ccc(O)c(O)c2)SC(=S)N1Nc1ccccc1", "Potency": "inconclusive: 20.6 µM [cytotoxic, single point]"}
{"smiles": "FC(F)(F)c1cc(CCN2C(=S)NC[C@@H]2Cc2ccccc2)cc(C(F)(F)F)c1", "Potency": "inconclusive: 29.1 µM [cytotoxic, single point]"}
{"smiles": "CCC1OC23CCCCC2C(C#N)(C(=N)O3)C1(C#N)C#N", "note": "(stereo not given)", "Potency": "inconclusive: 16.4 µM [cytotoxic, partial curve]"}
{"smiles": "COc1cccc(C(=O)Nc2nnc(-c3cccs3)o2)c1", "Potency": "inconclusive: 29.1 µM [cytotoxic, single point]"}
{"smiles": "Cc1cccc(NC(=O)C2C(c3ccccc3)C2(Cl)Cl)c1C", "note": "(stereo not given)", "Potency": "inconclusive: 29.1 µM [cytotoxic, single point]"}
{"smiles": "COC(=O)c1cn(NC(=O)c2ccc(OC)c(OC)c2)c(=O)c2ccccc12", "activity change, negative = cytotoxic": "inactive: -9.15%"}
{"smiles": "NC(N)=N/N=C/c1ccc(Cl)c(Cl)c1", "Potency": "active: 16.4 µM"}
{"smiles": "Nc1nc(SCc2ccc(Cl)cc2Cl)nc2nc3c(cc12)CCCC3", "Potency": "inconclusive: 29.1 µM [cytotoxic, single point]"}
{"smiles": "COc1cccc(C(=O)CSc2nnnn2C)c1", "activity change, negative = cytotoxic": "inactive: 6.44%"}
{"smiles": "COc1cc2sc3cc(NCCCN4CCOCC4)ccc3c(=O)c2cc1OC", "activity change, negative = cytotoxic": "inactive: -12.5%"}
{"smiles": "O=C(Nc1cc(C(F)(F)F)ccc1N1CCOCC1)c1ccc2ccccc2n1", "Potency": "inconclusive: 23.1 µM [cytotoxic, partial curve, poor fit]"}
{"smiles": "COc1cc(CNCCO)cc(Br)c1OCc1ccccc1Cl", "Potency": "inconclusive: 29.1 µM [cytotoxic, single point]"}
{"smiles": "O=C(c1ccc(OC2CCN(Cc3ccc(C(F)(F)F)cc3)CC2)cc1)N1CCCCC1", "activity change, negative = cytotoxic": "inactive: -29.9%"}
{"smiles": "COCCNC(=O)c1noc2c1CCc1cc(OC)ccc1-2", "activity change, negative = cytotoxic": "inactive: -8.49%"}
{"smiles": "O=C(NCc1ccccc1)c1ccc(CN2CCC(Cc3ccccc3)CC2)cc1", "activity change, negative = cytotoxic": "inactive: 13%"}
{"smiles": "CC1(C)c2[nH]c3ccccc3c2C[C@H]2C(=O)N(Cc3cccc(F)c3)C(=O)N21", "Potency": "inconclusive: 14.6 µM [cytotoxic, single point]"}
{"smiles": "COc1ccc(Cl)cc1NC(=O)CN(C)CC(=O)Nc1ccc(C)cc1Br", "activity change, negative = cytotoxic": "inactive: -10.7%"}
{"smiles": "CCOC(=O)[C@H]1[C@H]2COc3ccc(Br)cc3[C@@H]2N2C(=O)c3cc(OC)c(OC)cc3NC(=O)[C@@]12C", "activity change, negative = cytotoxic": "inactive: -4.04%"}
{"smiles": "CC(C)(C)C(=O)CSc1ncnc2c1cnn2Cc1ccccc1", "Potency": "inconclusive: 16.4 µM [cytotoxic, partial curve, poor fit]"}
{"smiles": "Cc1ccc(/C=N/N(C)S(=O)(=O)c2ccc(C)cc2)cc1", "Potency": "inconclusive: 20.6 µM [cytotoxic, single point]"}
{"smiles": "C[C@@]12C(=O)N(Cc3ccccc3)CC(=O)N1[C@H]1c3ccccc3OC[C@@H]1[C@@H]2c1ccccc1", "Potency": "inconclusive: 29.1 µM [cytotoxic, single point]"}
{"smiles": "CC(C)Cn1c(N)c(C(=O)COC(=O)CC23CC4CC(CC(C4)C2)C3)c(=O)n(C)c1=O", "Potency": "inconclusive: 16.4 µM [cytotoxic, single point]"}
{"smiles": "CC(=O)Nc1cc(-c2ccc(N3CCN(C)CC3)cc2)cn2c(-c3ccc(F)cc3)cnc12", "Potency": "inconclusive: 29.1 µM [cytotoxic, single point]"}
{"smiles": "Cc1cccc(C)c1OCCNC(=O)C(=O)NCc1ccco1", "Potency": "active: 1.46 µM"}
{"smiles": "Cc1ccc(S(=O)(=O)N(C)C[C@@H]2OCc3cnnn3CCCC(=O)N([C@@H](C)CO)C[C@@H]2C)cc1", "activity change, negative = cytotoxic": "inactive: 3.71%"}
{"smiles": "COc1ccc(C2c3c(n(C)c4ccccc34)C(=O)N2CC(=O)Nc2ccc(Cl)cc2)cc1", "note": "(stereo not given)", "activity change, negative = cytotoxic": "inactive: -2.64%"}
{"smiles": "O=[N+]([O-])c1cccc(C=Nc2cccc3ccccc23)c1O", "activity change, negative = cytotoxic": "inactive: -0.18%"}
{"smiles": "CC(=O)c1c(C)[nH]c(C(=O)OCc2ccc([N+](=O)[O-])cc2)c1C", "activity change, negative = cytotoxic": "inconclusive: -64%"}
{"smiles": "Cc1cccc(N2CCN(C(=O)c3ccncc3)CC2C)c1", "note": "(stereo not given)", "Potency": "inconclusive: 29.1 µM [cytotoxic, single point]"}
{"smiles": "OCc1cn(-c2ccc(Cl)cc2)nn1", "Potency": "inconclusive: 4.61 µM [rising, single point]"}
{"smiles": "Cc1ccc(OCCC(=O)N(Cc2ccccc2)c2c(N)n(Cc3ccccc3)c(=O)[nH]c2=O)cc1", "activity change, negative = cytotoxic": "inactive: -13.9%"}
{"smiles": "CCOC(=O)C(C)Sc1nc(-c2cccs2)ccc1C#N", "note": "(stereo not given)", "Potency": "inconclusive: 20.6 µM [cytotoxic, single point]"}
{"smiles": "COc1ccccc1-c1sc2ccccc2c1-c1ccc(O)cc1", "activity change, negative = cytotoxic": "inactive: 0%"}
{"smiles": "Cc1nc(C)c(-c2csc(Nc3ccc(Cl)cn3)n2)s1", "Potency": "inconclusive: 23.1 µM [cytotoxic, partial curve, poor fit]"}
{"smiles": "Cn1nc(CC(=O)Nc2ccc3c(c2)OCCO3)c2ccccc2c1=O", "Potency": "inconclusive: 0.731 µM [cytotoxic, full curve, poor fit]"}
{"smiles": "CC(=O)NCCc1nc2ccccc2n1Cc1cc(C)ccc1C", "activity change, negative = cytotoxic": "inactive: 18.9%"}
{"smiles": "CCc1ccc(Nc2cc(C)nc3nc(Cc4ccc(Cl)cc4)nn23)cc1", "Potency": "active: 20.6 µM"}
